According to patent US9610279B2, “Method for induction of a heat shock protein, anti-stress or regulation of an autonomic nerve” (AMINO UP CHEMICAL CO., LTD., priority 2011, dated 2017):
Some entries share one result that the patent states for a list of compounds.

How the values were obtained:
HSP70 [1] = test: HSP70 mRNA expression inducing activity in HL-60 cells (real-time PCR); assay type: cell-based, human; settings: final concentration 1 mg/mL, four hours
HSP70 [2] = test: HSP70 mRNA expression inducing activity in HeLa cells (PCR); assay type: cell-based, human; settings: final concentration 1 mg/mL, 22 hours

Row | SMILES | increased HSP70 mRNA expression as compared with the control (HSP70 [1]) | increased HSP70 mRNA expression as compared with the control (HSP70 [2])
1 | O=Cc1ccc(CO)o1 [sample 1, 5-Hydroxymethyl-2-furaldehyde] | 3- to 9 fold | 1.2- to 1.5 fold
2 | O=Cc1ccc(COC(=O)[C@H]2CCC(=O)N2)o1 [sample 2-R] | 3- to 9 fold | –
3 | O=Cc1ccc(COC(=O)C2CCC(=O)N2)o1 (stereo not shown) [sample 2-S] | 3- to 9 fold | –
